Some results were stated once for a whole list of compounds, not compound by compound.
Target: T1, V600E full-length B-Raf (Homo sapiens, UniProt P15056, V600E)
T1 construct: 1 μM FSBA-MEK and 20 nM V600E full-length B-Raf; made in house; host or cells: Sf9 insect cells (baculovirus)
Assay: B-Raf IC50 assay (incorporation of 33P phosphate into FSBA-modified MEK)
Type: biochemical
Conditions: bound less than 500 nM
Description: Determining the activity of Raf in the sample is possible by a number of direct and indirect detection methods (US 2004/0082014). Activity of human recombinant B-Raf protein may be assessed in vitro by assay of the incorporation of radio labeled phosphate to recombinant MAP kinase (MEK), a known physiologic substrate of B-Raf, according to US 2004/0127496 and WO 03/022840. The activity/inhibition of V600E full-length B-Raf was estimated by measuring the incorporation of radio labeled phosphate from [γ-^33P]ATP into FSBA-modified wild-type MEK (see Example A).
Activity of human recombinant B-Raf protein may be assessed in vitro by assay of the incorporation of radio labeled phosphate to recombinant MAP kinase (MEK), a known physiologic substrate of B-Raf, according to US 2004/0127496 and WO 03/022840. Catalytically active human recombinant B-Raf protein is obtained by purification from sf9 insect cells infected with a human B-Raf recombinant baculovirus expression vector.
The activity/inhibition of V600E full-length B-Raf was estimated by measuring the incorporation of radio labeled phosphate from [γ-^33P]ATP into FSBA-modified wild-type MEK. The 30-μL assay mixtures contained 25 mM Na Pipes, pH 7.2, 100 mM KCl, 10 mM MgCl2, 5 mM β-glycerophosphate, 100 μM Na Vanadate, 4 μM ATP, 500 nCi [γ-^33P]ATP, 1 μM FSBA-MEK and 20 nM V600E full-length B-Raf. Incubations were carried out at 22° C. in a Costar 3365 plate (Corning). Prior to the assay, the B-Raf and FSBA-MEK were preincubated together in assay buffer at 1.5× (20 μL of 30 nM and 1.5 μM, respectively) for 15 minutes, and the assay was initiated by the addition of 10 μL of 10 μM ATP. Following the 60-minute incubation, the assay mixtures were quenched by the addition of 100 μL of 25% TCA, the plate was mixed on a rotary shaker for 1 minute, and the product was captured on a Perkin-Elmer GF/B filter plate using a Tomtec Mach III Harvester. After sealing the bottom of the plate, 35 μL of Bio-Safe II (Research Products International) scintillation cocktail were added to each well and the plate was top-sealed and counted in a Topcount NXT (Packard).

Protein sequences, listed by entry. Tags and fused reporters are not part of them.
UniProt P15056, whole entry V600E: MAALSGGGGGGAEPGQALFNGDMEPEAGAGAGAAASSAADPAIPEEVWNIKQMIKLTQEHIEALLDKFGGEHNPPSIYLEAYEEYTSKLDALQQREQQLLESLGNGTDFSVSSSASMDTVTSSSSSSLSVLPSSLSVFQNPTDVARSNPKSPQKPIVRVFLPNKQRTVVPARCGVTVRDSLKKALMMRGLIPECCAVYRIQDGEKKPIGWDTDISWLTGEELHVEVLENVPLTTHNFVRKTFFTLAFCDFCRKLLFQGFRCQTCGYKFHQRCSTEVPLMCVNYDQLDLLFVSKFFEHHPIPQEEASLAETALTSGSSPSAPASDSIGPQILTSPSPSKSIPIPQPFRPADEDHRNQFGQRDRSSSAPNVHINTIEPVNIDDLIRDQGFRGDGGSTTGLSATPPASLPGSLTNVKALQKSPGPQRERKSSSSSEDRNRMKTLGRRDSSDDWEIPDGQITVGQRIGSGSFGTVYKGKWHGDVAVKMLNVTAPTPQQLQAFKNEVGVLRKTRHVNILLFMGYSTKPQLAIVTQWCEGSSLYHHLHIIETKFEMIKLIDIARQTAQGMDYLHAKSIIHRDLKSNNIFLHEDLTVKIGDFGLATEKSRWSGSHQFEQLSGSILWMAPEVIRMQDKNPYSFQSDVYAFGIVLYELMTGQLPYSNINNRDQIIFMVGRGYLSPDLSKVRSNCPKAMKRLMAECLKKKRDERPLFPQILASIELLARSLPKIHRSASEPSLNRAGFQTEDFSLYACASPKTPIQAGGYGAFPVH

IC50 [nM] | Structure (SMILES)
< 500 | CCCS(=O)(=O)Nc1ccc(F)c(NC(=O)Nc2ncnc3sc(C)c(C)c23)c1F [Example 20, Propane-1-sulfonic acid {3-[3-(5,6-dimethyl-thieno[2,3-d]pyrimidin-4-yl)-ureido]-2,4-difluoro-phenyl}-amide]
< 500 | CCCS(=O)(=O)Nc1ccc(F)c(NC(=O)Nc2ncnc3sccc23)c1F [Example 17, Propane-1-sulfonic acid [2,4-difluoro-3-(3-thieno[2,3-d]pyrimidin-4-yl-ureido)-phenyl]-amide]
< 500 | CCS(=O)(=O)Nc1ccc(Cl)c(NC(=O)Nc2ncnc3[nH]nc(OC)c23)c1F [Example 4, Ethanesulfonic acid {4-chloro-2-fluoro-3-[3-(3-methoxy-1H-pyrazolo[3,4-d]pyrimidin-4-yl)-ureido]-phenyl}-amide]
< 500 | CCCS(=O)(=O)Nc1ccc(F)c(NC(=O)Nc2ncnc3[nH]nc(OCCCO)c23)c1F [Example 15, Propane-1-sulfonic acid {2,4-difluoro-3-{3-[3-(3-hydroxy-propoxy)-1H-pyrazolo[3,4-d]pyrimidin-4-yl]-ureido}-phenyl)-amide]
< 500 | CCCS(=O)(=O)Nc1ccc(F)c(NC(=O)Nc2ncnc3[nH]c(=S)[nH]c23)c1F [Example 23, Propane-1-sulfonic acid {2,4-difluoro-3-[3-(8-thioxo-8,9-dihydro-7H-purin-6-yl)-ureido]-phenyl}-amide]
< 500 | CCCS(=O)(=O)Nc1ccc(F)c(NC(=O)N(C)c2ncnc3[nH]cnc23)c1F [Example 1, Propane-1-sulfonic acid {2,4-difluoro-3-[3-methyl-3-(9H-purin-6-yl)-ureido]-phenyl}-amide]
< 500 | CCCS(=O)(=O)Nc1ccc(F)c(NC(=O)Nc2ncnc3[nH]ccc23)c1F [Example 12, Propane-1-sulfonic acid {2,4-difluoro-3-[3-(7H-pyrrolo[2,3-d]pyrimidin-4-yl)-ureido]-phenyl}-amide]
< 500 | CCCS(=O)(=O)Nc1ccc(F)c(NC(=O)Nc2ncnc3oc(C)c(C)c23)c1F [Example 18, Propane-1-sulfonic acid {3-[3-(5,6-dimethyl-furo[2,3-d]pyrimidin-4-yl)-ureido]-2,4-difluoro-phenyl}-amide]
< 500 | CCCS(=O)(=O)Nc1ccc(Cl)c(NC(=O)Nc2ncnc3sccc23)c1F [Example 22, Propane-1-sulfonic acid [4-chloro-2-fluoro-3-(3-thieno[2,3-d]pyrimidin-4-yl-ureido)-phenyl]-amide]
< 500 | CCCS(=O)(=O)Nc1ccc(F)c(NC(=O)Nc2ncnc3[nH]nc(OCC)c23)c1F [Example 9, N-(3-(3-(3-Ethoxy-1H-pyrazolo[3,4-d]pyrimidin-4-yl)ureido)-2,4-difluorophenyl)propane-1-sulfonamide]
< 500 | CCCS(=O)(=O)Nc1ccc(Cl)c(NC(=O)Nc2ncnc3oc(C)c(C)c23)c1F [Example 21, Propane-1-sulfonic acid {4-chloro-3-[3-(5,6-dimethyl-furo[2,3-d]pyrimidin-4-yl)-ureido]-2-fluoro-phenyl}-amide]
< 500 | CCCS(=O)(=O)Nc1ccc(F)c(NC(=O)Nc2ncnc3[nH]nc(OC)c23)c1Cl [Example 2, Propane-1-sulfonic acid {2-chloro-4-fluoro-3-[3-(3-methoxy-1H-pyrazolo[3,4-d]pyrimidin-4-yl)-ureido]-phenyl}-amide]
< 500 | CCCS(=O)(=O)Nc1ccc(F)c(NC(=O)N(C)c2ncnc3[nH]ccc23)c1F [Example 6, Propane-1-sulfonic acid {2,4-difluoro-3-[3-methyl-3-(7H-pyrrolo[2,3-d]pyrimidin-4-yl)-ureido]-phenyl}-amide]
< 500 | CCS(=O)(=O)Nc1ccc(F)c(NC(=O)Nc2ncnc3[nH]nc(OC)c23)c1Cl [Example 5, Ethanesulfonic acid {2-chloro-4-fluoro-3-[3-(3-methoxy-1H-pyrazolo[3,4-d]pyrimidin-4-yl)-ureido]-phenyl}-amide]
< 500 | CCCS(=O)(=O)Nc1ccc(F)c(NC(=O)Nc2ncnc3[nH]nc(I)c23)c1F [Example 7, Propane-1-sulfonic acid {2,4-difluoro-3-[3-(3-iodo-1H-pyrazolo[3,4-d]pyrimidin-4-yl)-ureido]-phenyl}-amide]
< 500 | CCCS(=O)(=O)Nc1ccc(F)c(NC(=O)Nc2ncnc3[nH]cnc23)c1F [Example 13, Propane-1-sulfonic acid {2,4-difluoro-3-[3-(9H-purin-6-yl)-ureido]-phenyl}-amide]
< 500 | CCS(=O)(=O)Nc1ccc(F)c(NC(=O)Nc2ncnc3[nH]nc(OC)c23)c1F [Example 3, Ethanesulfonic acid {2,4-difluoro-3-[3-(3-methoxy-1H-pyrazolo[3,4-d]pyrimidin-4-yl)-ureido]-phenyl}-amide]
< 500 | CCCS(=O)(=O)Nc1ccc(F)c(NC(=O)Nc2ncnc3sc4c(c23)CCC4)c1F [Example 19, Propane-1-sulfonic acid {3-[3-(6,7-dihydro-5H-cyclopenta[4,5]thieno[2,3-d]pyrimidin-4-yl)-ureido]-2,4-difluoro-phenyl}-amide]
< 500 | CCCS(=O)(=O)Nc1ccc(Cl)c(NC(=O)Nc2ncnc3[nH]nc(OC)c23)c1F [Example 16, Propane-1-sulfonic acid {4-chloro-2-fluoro-3-[3-(3-methoxy-1H-pyrazolo[3,4-d]pyrimidin-4-yl)-ureido]-phenyl}-amide]
